The whole screen tested about 140,000 compounds, of which about 4,300 (3.1%) were called active. The inconclusive results got no clear call from the source; some entries with a clear call stand among them for comparison.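 The calls were made as follows: active = readout at or below -70, meaning at least 70% loss of cells showing the perinucleolar compartment, a nuclear body marking cancer cells; inconclusive = readout between -30 and a set limit; inactive = the rest.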
Test: High Content Assay for Compounds that inhibit the Assembly of the Perinucleolar Compartment;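 also: plate controls were DMSO wells for no effect and camptothecin positive control wells for full effect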
Conditions: PC3M PTB-GFP, PNC prevalence imaging, 16 h; at 10 µM; hits give low values
In short: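 Read-out is percentage of cells bearing a perinucleolar compartment, from automated 20x imaging of fixed, Hoechst-stained PC3M PTB-GFP cells. Cells were seeded 4 h, then exposed 16 h to compound (23 nl of library stock) in duplicate plates.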

Row | SMILES | activity change (PNC), negative = inhibition
1 | CCOC(=O)/C(C#N)=C1/C=CNC(=O)N1 | inconclusive: -37.2%
2 | Cc1cc(C)nc(Nc2ccc(C(=O)O)cc2)n1 | inconclusive: -74.4%
3 | COC(=O)C1(C(=O)OC)NOC2C(=O)N(c3ccc(Cl)cc3Cl)C(=O)C21 (configuration not stated) | inconclusive: -74.8%
4 | Cc1ccc(C)n1-c1cccc(N)c1 | inconclusive: -31.5%
5 | Cc1ccc(S(=O)(=O)NCCCNC(=O)c2ccccc2)cc1 | inactive: 4.68%
6 | CCCCCC(=O)Nc1ccccc1N1CCOCC1 | inconclusive: -37%
7 | CCOC(=O)c1c(-c2ccc(C)o2)csc1NC(=O)COC(=O)c1cccs1 | inconclusive: -32.3%
8 | Cc1cc(SCC(=O)c2cc(C)n(C)c2C)nc2ccccc12 | inconclusive: -75.2%
9 | Cc1cc(C(F)(F)F)n2ncc(-c3ccccc3)c2n1 | inconclusive: -76.2%
10 | Cc1ccc(SCCNC(=O)C(C)C)cc1 | inactive: -13.9%
11 | CC(C)NC(=O)c1onc(CSc2ccccc2F)c1C(=O)O | active: -83.7%
12 | Cc1cccnc1NC(=S)NC(=O)/C=C/c1ccco1 | inactive: -1.65%
13 | CC1CCCN(c2cc3c(cc2[N+](=O)[O-])C(=O)N(c2ccccc2)C3=O)C1 (configuration not stated) | inactive: -8.97%
14 | Cc1nc2ccccn2c1C(=O)NN | inactive: 22.6%
15 | COc1ccc(-c2nnc(-c3cc4c(ccc5ccccc54)oc3=O)o2)cc1 | inconclusive: -39.1%
16 | CCn1c(SCC(=O)NCc2cccs2)nnc1-c1cccs1 | inconclusive: -42.7%
17 | CCn1c(SCC(=O)Nc2ccc(C)cc2)nc2nc3c(cc2c1=O)CCCC3 | inconclusive: -44.6%
18 | N#CC1=C(N)OC2=C(CC/C2=C\c2ccc(F)cc2)C1c1ccc(F)cc1 (configuration not stated) | inconclusive: -51.7%
19 | COc1ccc(NS(=O)(=O)c2cc(NC(=O)c3ccc(F)cc3)ccc2OC)cc1 | inactive: -1.48%

Row | SMILES | activity change (PNC), negative = inhibition
20 | C=CCNC(=O)COC(=O)c1ccc(Cl)c(S(=O)(=O)N(Cc2ccccc2)c2ccccc2)c1 | inactive: -8.58%
21 | CCOC(=O)c1c(NC(=O)C2c3ccccc3Oc3ccccc32)sc(C(N)=O)c1C | inconclusive: -63.7%
22 | O=c1c2c3nc4ccccc4nc3n(/N=C/c3ccco3)c2ncn1CCC1=CCCCC1 | inconclusive: -67.7%
23 | COc1ccc(C2CC(C(F)(F)F)n3ncc(C(=O)NCc4cccnc4)c3N2)cc1OC (configuration not stated) | active: -82.3%
24 | CC(CN1CCCCC1)OC(=O)C(C)(c1ccccc1)c1ccccc1 (configuration not stated) | inconclusive: -50.8%
25 | O=C(Oc1ccc(OC(=O)c2ccco2)c(S(=O)(=O)c2ccc(Br)cc2)c1)c1ccco1 | active: -100%
26 | COC(=O)c1c(NC(=O)Cn2cnc([N+](=O)[O-])n2)sc2c1CCC(C)C2 (configuration not stated) | inconclusive: -46.9%
27 | O=S1(=O)N=C(N/N=C/c2ccccn2)c2ccccc21 | inconclusive: -67.5%
28 | CCSc1nnc(NC(=O)CSc2nnc(-c3c[nH]c4ccccc34)n2CC)s1 | inconclusive: -48.7%
29 | CN1CCN(C(=O)CCc2nc3ccccc3n2-c2ccccc2)CC1 | inconclusive: -76.1%
30 | N#Cc1nc(COc2ccccc2Cl)oc1N1CCCCCC1 | active: -122%
31 | Oc1cccc(C=NCc2ccccc2)c1 | inconclusive: -70.2%
32 | CCN1CCN(c2nc3ccccc3nc2C(C#N)C(=O)OCc2ccccc2)CC1 (configuration not stated) | inconclusive: -70.5%
33 | Cn1c(N2CCC(C(N)=O)CC2)nc2c1c(=O)n(Cc1cccc(Br)c1)c(=O)n2C | inactive: 2.89%
34 | O=C(Cn1[nH]c(=O)c2ccccc2c1=O)NC1CCN(Cc2ccccc2)CC1 | inactive: -10.9%
35 | COc1ccccc1NC(=O)CSc1nnc(-c2ccncc2)o1 | inactive: 24.3%
36 | COC(=O)c1cc(OC)c(OC)cc1NC(=S)N1CCN(C/C=C/c2ccccc2)CC1 | inactive: -7.18%
37 | CCOC(=O)C1CCCN(C(=O)Cc2ccc(OC)c(OC)c2)C1 (configuration not stated) | inconclusive: -31%
38 | CN1CCN(C(=O)c2ccc(CSc3nc4ccncc4n3Cc3ccc(F)cc3)cc2)CC1 | inactive: 30.5%

Row | SMILES | activity change (PNC), negative = inhibition
39 | CCOC(=O)N1CCN(c2ccc(C(=O)c3ccccc3)cc2F)CC1 | inactive: 7.46%
40 | CCCCC(=O)NC(NC(=S)N1CCCCCC1)C(Cl)(Cl)Cl (configuration not stated) | inactive: 20.4%
41 | Cc1nc(NCc2ccco2)c2oc3ccccc3c2n1 | inconclusive: -68.2%
42 | COc1ccc2c(C)cc(N3CCOCC3)nc2c1 | inconclusive: -31.9%
43 | CCOC(=O)c1c(NC(=O)CSc2ncnc3ccccc23)sc(C(C)=O)c1C | inactive: 35.3%
44 | CCN1CCCC1CNC(=O)C1CCN(Cc2nc(-c3cccc(Br)c3)oc2C)CC1 (configuration not stated) | inconclusive: -46.2%
45 | O=C(NCc1ccccc1Cl)C1CCC(CNc2c(N3CCCCC3)c(=O)c2=O)CC1 (configuration not stated) | inactive: 42.7%
46 | CCC(=O)Nc1cccc(NC(=O)CSc2nnc(-c3ccc(NS(C)(=O)=O)cc3)n2CC)c1 | inactive: 13%
47 | CC(C)N1C(=O)/C(=C\c2nc3ccccc3c(=O)n2-c2ccccc2)c2ccccc21 | inconclusive: -35.6%
48 | Cn1c(CCNC(=O)c2ccco2)nc2cc(NS(=O)(=O)c3ccc(Cl)cc3)ccc21 | inconclusive: -33.1%
49 | CCOC(=O)C1=C(C)OC(N)=C(C#N)C1c1c(C)nn(-c2ccccc2)c1Cl (configuration not stated) | inconclusive: -42.1%
50 | O=C(CN1C(=O)C2C3c4ccccc4C(c4ccccc43)C2C1=O)Nc1cccc(C(=O)O)c1 (configuration not stated) | inconclusive: -49.1%
51 | COc1ccc(C(=O)c2sc(Nc3ccccc3)c(C(=O)Nc3ccc(OC)c(OC)c3)c2N)cc1 | inactive: 35.9%
52 | Cc1c(C(=O)O)oc2c1C(O)CCC2 (configuration not stated) | inconclusive: -42.4%
53 | CN(C)C=Nc1nonc1N | inconclusive: -33.3%
54 | NC(=O)COc1ncn(-c2ccccc2)n1 | active: -112%
55 | CCOC(=O)c1cnc(-c2cccc(OC)c2)[nH]c1=O | inactive: -7.53%
56 | Cn1nc(C(F)(F)F)c(C#N)c1N1CCN(c2cccc(C(F)(F)F)c2)CC1 | inactive: 9.53%
57 | Nn1c(SCC(=O)N2CCN(S(=O)(=O)c3ccccc3)CC2)nnc1-c1cccs1 | inconclusive: -33%

Among those listed so far, these have an NH in an aromatic ring.
Row | SMILES | activity change (PNC), negative = inhibition
28 | CCSc1nnc(NC(=O)CSc2nnc(-c3c[nH]c4ccccc34)n2CC)s1 | inconclusive: -48.7%
34 | O=C(Cn1[nH]c(=O)c2ccccc2c1=O)NC1CCN(Cc2ccccc2)CC1 | inactive: -10.9%
55 | CCOC(=O)c1cnc(-c2cccc(OC)c2)[nH]c1=O | inactive: -7.53%
